Measured values reported in publication PMC12302426, “Dihydrokoumine, a dual-target analgesic with reduced side effects isolated from a traditional Chinese medicine” (Journal of Advanced Research, 2024).

By UniProt entry, the sequences of proteins in these tests, tags left out. Where a name states a change or a piece, a line headed by the entry shows the natural chain unless it says otherwise.
UniProt P20309, whole entry: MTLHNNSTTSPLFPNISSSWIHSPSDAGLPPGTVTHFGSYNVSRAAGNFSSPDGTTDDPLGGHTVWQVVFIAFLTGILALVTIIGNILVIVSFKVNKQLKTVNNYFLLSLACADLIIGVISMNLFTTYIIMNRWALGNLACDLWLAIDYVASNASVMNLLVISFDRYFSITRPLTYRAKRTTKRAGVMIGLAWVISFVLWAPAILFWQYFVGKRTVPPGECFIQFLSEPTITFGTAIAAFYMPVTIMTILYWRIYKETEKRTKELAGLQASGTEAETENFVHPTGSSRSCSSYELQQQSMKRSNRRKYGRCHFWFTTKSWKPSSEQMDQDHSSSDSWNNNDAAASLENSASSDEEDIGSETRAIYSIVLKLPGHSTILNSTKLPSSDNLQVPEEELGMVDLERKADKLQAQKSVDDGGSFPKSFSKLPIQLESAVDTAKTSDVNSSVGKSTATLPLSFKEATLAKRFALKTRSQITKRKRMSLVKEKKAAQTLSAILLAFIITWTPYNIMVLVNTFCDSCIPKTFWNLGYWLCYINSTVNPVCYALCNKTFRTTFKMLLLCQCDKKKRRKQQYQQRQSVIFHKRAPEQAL

Biological target: T1, M3R (Homo sapiens, UniProt P20309)
T1 construct: expressed in transfected cells; host or cells: HEK293 cell membranes
Test: Radioligand binding assay, [3H] NMS
Settings: [3H] NMS 0.2 nM
Procedure: Radioligand binding assays were conducted using MicroBeta2 (PerkinElmer, USA). Membrane protein preparations MOR and M3R were each prepared at a concentration of 2.5 µg/well. The radio ligands [^3H] DAMGO (specific for MOR) and [^3H]-NMS (specific for M3R) were prepared at concentrations of 0.5 nM and 0.2 nM, respectively. […] For each well, 1 µL of the serially diluted test compounds was transferred, followed by the addition of 100 µL of membrane stock solution and 100 µL of radioligand. The plates were sealed and shaken at 300 rpm at room temperature for one hour. Upon completion of the binding assay, the contents of each well were filtered through Unifilter-96 GF/C filter plates (PerkinElmer, USA). The filter plates were dried for one hour at 50°C and sealed. The trapped ^3H (tritium) on the filters was then quantified using the MicroBeta2. The percentage of inhibition or binding was subsequently calculated.

SMILES: CN1[C@@H]2C[C@@H](OC(=O)[C@H](CO)c3ccccc3)C[C@H]1[C@@H]1O[C@@H]12 [scopolamine, reference compound]
- Ki: 0.17 ± 0.05 nM
